In article PMC9295053:
Where two headings read alike, the source gives them in different places. No constants are given. Whether binding was seen depends on the method and setting. In cells and extracts the contact can be indirect. Some results given as binding are weak or reduced against the parent protein; the word gives no strength.

Protein sequences, listed by entry. Tags and fused reporters are not part of them. Lines headed by an entry give the natural chain unless they say otherwise; changes in a name come on top. Chains listed by the source or under a name are the forms on record and can include a tag or linker.
V5-tagged GAC (glutaminase C), wild type (O94925, form named): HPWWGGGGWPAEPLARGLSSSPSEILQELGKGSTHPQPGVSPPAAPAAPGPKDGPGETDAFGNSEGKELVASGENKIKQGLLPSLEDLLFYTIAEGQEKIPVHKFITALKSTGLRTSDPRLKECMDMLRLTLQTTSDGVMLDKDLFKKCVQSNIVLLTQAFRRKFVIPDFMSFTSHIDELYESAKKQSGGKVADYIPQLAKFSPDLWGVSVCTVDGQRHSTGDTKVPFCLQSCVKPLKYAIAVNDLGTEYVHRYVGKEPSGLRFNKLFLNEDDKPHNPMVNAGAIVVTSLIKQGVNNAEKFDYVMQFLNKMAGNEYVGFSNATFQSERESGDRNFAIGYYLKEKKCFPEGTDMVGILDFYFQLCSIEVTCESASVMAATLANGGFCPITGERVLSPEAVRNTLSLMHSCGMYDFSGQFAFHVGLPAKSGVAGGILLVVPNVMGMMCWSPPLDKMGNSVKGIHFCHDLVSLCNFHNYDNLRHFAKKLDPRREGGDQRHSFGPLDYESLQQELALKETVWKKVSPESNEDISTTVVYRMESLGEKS
V5-tagged GAC K311Q (acetylation-mimetic mutant) (O94925, form named): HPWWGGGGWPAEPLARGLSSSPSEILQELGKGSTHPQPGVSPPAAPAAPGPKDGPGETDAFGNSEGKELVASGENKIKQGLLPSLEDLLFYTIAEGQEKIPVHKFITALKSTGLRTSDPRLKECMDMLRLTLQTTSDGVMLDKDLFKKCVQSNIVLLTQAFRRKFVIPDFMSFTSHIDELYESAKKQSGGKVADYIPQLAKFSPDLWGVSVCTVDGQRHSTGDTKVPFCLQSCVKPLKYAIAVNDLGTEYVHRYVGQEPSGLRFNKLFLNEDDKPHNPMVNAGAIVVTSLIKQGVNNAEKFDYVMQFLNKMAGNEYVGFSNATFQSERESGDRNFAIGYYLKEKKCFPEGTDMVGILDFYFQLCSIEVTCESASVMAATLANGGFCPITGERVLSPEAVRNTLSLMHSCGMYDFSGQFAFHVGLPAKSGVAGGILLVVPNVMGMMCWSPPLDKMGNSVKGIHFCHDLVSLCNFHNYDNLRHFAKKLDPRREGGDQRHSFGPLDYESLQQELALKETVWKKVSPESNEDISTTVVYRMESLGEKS
UniProt Q9UBN7: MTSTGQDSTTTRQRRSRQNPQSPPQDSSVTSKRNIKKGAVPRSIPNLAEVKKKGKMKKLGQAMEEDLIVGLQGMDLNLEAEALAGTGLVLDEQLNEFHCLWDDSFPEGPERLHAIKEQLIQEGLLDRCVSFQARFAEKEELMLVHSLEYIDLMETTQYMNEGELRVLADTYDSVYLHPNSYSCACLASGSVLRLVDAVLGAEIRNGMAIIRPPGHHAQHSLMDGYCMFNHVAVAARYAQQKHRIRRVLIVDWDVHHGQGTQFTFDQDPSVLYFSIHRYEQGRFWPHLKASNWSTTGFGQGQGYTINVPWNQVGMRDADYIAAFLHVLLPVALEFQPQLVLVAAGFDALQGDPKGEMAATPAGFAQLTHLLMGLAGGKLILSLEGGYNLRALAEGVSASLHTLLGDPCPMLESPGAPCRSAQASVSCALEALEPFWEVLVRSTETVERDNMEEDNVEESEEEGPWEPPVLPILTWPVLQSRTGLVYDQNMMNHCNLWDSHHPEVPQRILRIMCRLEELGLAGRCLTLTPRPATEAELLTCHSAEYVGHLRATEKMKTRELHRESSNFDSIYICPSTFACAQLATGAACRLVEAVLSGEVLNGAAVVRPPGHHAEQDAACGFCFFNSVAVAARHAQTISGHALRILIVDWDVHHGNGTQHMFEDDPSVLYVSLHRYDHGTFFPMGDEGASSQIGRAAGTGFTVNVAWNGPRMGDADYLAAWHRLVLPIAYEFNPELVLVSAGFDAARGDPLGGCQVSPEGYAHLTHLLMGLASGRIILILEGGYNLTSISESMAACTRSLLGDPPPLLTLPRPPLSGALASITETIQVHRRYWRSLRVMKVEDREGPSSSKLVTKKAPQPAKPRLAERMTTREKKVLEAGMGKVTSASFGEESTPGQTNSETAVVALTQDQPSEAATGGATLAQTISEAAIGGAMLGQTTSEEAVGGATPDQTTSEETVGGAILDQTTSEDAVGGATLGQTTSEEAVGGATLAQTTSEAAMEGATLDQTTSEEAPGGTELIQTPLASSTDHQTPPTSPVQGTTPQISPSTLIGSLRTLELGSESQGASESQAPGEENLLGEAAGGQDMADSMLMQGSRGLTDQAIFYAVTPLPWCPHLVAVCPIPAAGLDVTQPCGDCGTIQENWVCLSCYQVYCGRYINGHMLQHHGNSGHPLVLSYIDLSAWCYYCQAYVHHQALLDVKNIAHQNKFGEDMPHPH
UniProt P19474: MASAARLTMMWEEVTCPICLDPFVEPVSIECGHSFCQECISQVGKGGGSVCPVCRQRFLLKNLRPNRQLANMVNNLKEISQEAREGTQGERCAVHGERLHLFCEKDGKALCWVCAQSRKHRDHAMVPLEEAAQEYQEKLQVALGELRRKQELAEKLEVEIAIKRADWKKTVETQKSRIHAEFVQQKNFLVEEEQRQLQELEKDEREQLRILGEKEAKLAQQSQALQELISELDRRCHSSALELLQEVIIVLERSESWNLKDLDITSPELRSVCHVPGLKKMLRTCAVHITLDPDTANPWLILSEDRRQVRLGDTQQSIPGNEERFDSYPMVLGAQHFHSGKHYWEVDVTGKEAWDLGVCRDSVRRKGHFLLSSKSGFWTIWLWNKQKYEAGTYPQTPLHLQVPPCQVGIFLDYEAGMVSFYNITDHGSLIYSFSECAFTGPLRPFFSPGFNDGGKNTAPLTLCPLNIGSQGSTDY

Tests used:
Assay in all cases: co-IP; transfected NSCLC cells (H1299, A549) lysed in NP40 lysis buffer; protein G agarose beads and indicated antibodies, 4 °C, 8 h; western blot; in some panels cells treated with NAM and TSA or co-transfected with HDAC4
[1] = target: V5-tagged GAC (glutaminase C), wild type (human) (UniProt O94925)
[2] = target: V5-tagged GAC K311Q (acetylation-mimetic mutant) (human) (UniProt O94925)
[3] = target: V5-tagged GAC (glutaminase C), wild type (human) (UniProt O94925); remark: listed apart in the source

binding [1]	binding [2]	binding [3]	Molecule
no binding			HDAC6 (from UniProt Q9UBN7 1-1215) (enzyme)
binds	binds		TRIM21 (Tripartite motif containing-21) (from UniProt P19474 1-475) (enzyme)
		no binding	HDAC7 (enzyme, UniProt Q8WUI4 1-952) MDLRVGQRPPVEPPPEPTLLALQRPQRLHHHLFLAGLQQQRSVEPMRLSMDTPMPELQVGPQEQELRQLLHKDKSKRSAVASSVVKQKLAEVILKKQQAALERTVHPNSPGIPYRTLEPLETEGATRSMLSSFLPPVPSLPSDPPEHFPLRKTVSEPNLKLRYKPKKSLERRKNPLLRKESAPPSLRRRPAETLGDSSPSSSSTPASGCSSPNDSEHGPNPILGSEALLGQRLRLQETSVAPFALPTVSLLPAITLGLPAPARADSDRRTHPTLGPRGPILGSPHTPLFLPHGLEPEAGGTLPSRLQPILLLDPSGSHAPLLTVPGLGPLPFHFAQSLMTTERLSGSGLHWPLSRTRSEPLPPSATAPPPPGPMQPRLEQLKTHVQVIKRSAKPSEKPRLRQIPSAEDLETDGGGPGQVVDDGLEHRELGHGQPEARGPAPLQQHPQVLLWEQQRLAGRLPRGSTGDTVLLPLAQGGHRPLSRAQSSPAAPASLSAPEPASQARVLSSSETPARTLPFTTGLIYDSVMLKHQCSCGDNSRHPEHAGRIQSIWSRLQERGLRSQCECLRGRKASLEELQSVHSERHVLLYGTNPLSRLKLDNGKLAGLLAQRMFVMLPCGGVGVDTDTIWNELHSSNAARWAAGSVTDLAFKVASRELKNGFAVVRPPGHHADHSTAMGFCFFNSVAIACRQLQQQSKASKILIVDWDVHHGNGTQQTFYQDPSVLYISLHRHDDGNFFPGSGAVDEVGAGSGEGFNVNVAWAGGLDPPMGDPEYLAAFRIVVMPIAREFSPDLVLVSAGFDAAEGHPAPLGGYHVSAKCFGYMTQQLMNLAGGAVVLALEGGHDLTAICDASEACVAALLGNRVDPLSEEGWKQKPNLNAIRSLEAVIRVHSKYWGCMQRLASCPDSWVPRVPGADKEEVEAVTALASLSVGILAEDRPSEQLVEEEEPMNL
		no binding	HDAC10 (enzyme, UniProt Q969S8 1-669) MGTALVYHEDMTATRLLWDDPECEIERPERLTAALDRLRQRGLEQRCLRLSAREASEEELGLVHSPEYVSLVRETQVLGKEELQALSGQFDAIYFHPSTFHCARLAAGAGLQLVDAVLTGAVQNGLALVRPPGHHGQRAAANGFCVFNNVAIAAAHAKQKHGLHRILVVDWDVHHGQGIQYLFEDDPSVLYFSWHRYEHGRFWPFLRESDADAVGRGQGLGFTVNLPWNQVGMGNADYVAAFLHLLLPLAFEFDPELVLVSAGFDSAIGDPEGQMQATPECFAHLTQLLQVLAGGRVCAVLEGGYHLESLAESVCMTVQTLLGDPAPPLSGPMAPCQSALESIQSARAAQAPHWKSLQQQDVTAVPMSPSSHSPEGRPPPLLPGGPVCKAAASAPSSLLDQPCLCPAPSVRTAVALTTPDITLVLPPDVIQQEASALREETEAWARPHESLAREEALTALGKLLYLLDGMLDGQVNSGIAATPASAAAATLDVAVRRGLSHGAQRLLCVALGQLDRPPDLAHDGRSLWLNIRGKEAAALSMFHVSTPLPVMTGGFLSCILGLVLPLAYGFQPDLVLVALGPGHGLQGPHAALLAAMLRGLAGGRVLALLEENSTPQLAGILARVLNGEAPPSLGPSSVASPEDVQALMYLRGQLEPQWKMLQCHPHLVA
